The results in this text go back to publication doi:10.1101/2022.03.18.484870 (bioRxiv, 2022).

The target in assay [1] is T1, TST-uS2c (158) nascent chain in stalled ribosome nascent chain complex (Arabidopsis thaliana) (UniProt P56797).
T1 sequence: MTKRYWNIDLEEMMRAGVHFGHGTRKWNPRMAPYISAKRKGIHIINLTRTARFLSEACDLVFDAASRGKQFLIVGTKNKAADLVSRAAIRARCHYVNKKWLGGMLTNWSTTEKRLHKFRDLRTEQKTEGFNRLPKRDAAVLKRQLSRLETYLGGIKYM
The assay can be described thus: co-sedimentation.

For assay [2], the target named is T1, TST-uS2c (158) nascent chain in stalled ribosome nascent chain complex (Arabidopsis thaliana). Kind of assay: pull-down.

These are yes or no findings as the source states them, for the method shown. In cells and extracts the contact can be indirect. Binding can be weak; no strength is given.

Turning to chloroplast ribosomal subunit uL4, the binding result in assay [1] and in assay [2] was “binds” each time.

Regarding chloroplast ribosomal subunit uL24, in assay [2], the binding result was “binds”.

Turning to plastidic trigger factor (TIG1), the binding entry in assay [2] is given as “binds”.

Regarding “stromal suppressor of tic40 protein 2 (STIC2), endogenous pea protein”, the binding entry in assay [2] is recorded as “no binding”.
